PubChem BioAssay AID1259254 – NCATS, 2017

- Assay: 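Finding genes that stop cells copying their DNA twice in one cycle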 (primary screen)
- Cell system: human HCT116 colorectal cancer cells
- Reagents: single siRNA against human genes
- Time to read-out: 3 days
- Read-out: 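Imaged Hoechst DNA stain sorts each cell into a cycle phase by DNA amount; per plate, G2 fraction set to 0% for non-targeting and 100% for GMNN siRNA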
- Direction: G2 robust z-score: higher = more G2 cells, more excess DNA replication
- Call rule: 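An siRNA counts as active if its G2 robust z-score lies at least 5 MADs above the screen median; here such calls match roughly 38% of GMNN control or more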
Shown is an unselected part of about 59,000 deposited reagents. About 1,550 of all reagents (2.6%) count as active. 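G2 share is only a proxy for re-replication; each gene was hit by three separate siRNAs, and active genes were retested.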 Reagents against one gene are numbered here. Not all columns of the deposit are shown. Not given: the amount of reagent.

G2 robust z-score, by gene and reagent
MAN2B1: #1 0.477 inactive; #2 -1.44 inactive; #3 0.221 inactive
MED4: #1 -0.705 inactive; #2 -1.02 inactive; #3 -0.0269 inactive
CBARP: #1 0.148 inactive; #2 0.672 inactive; #3 0.194 inactive
MLLT3: #1 -0.382 inactive; #2 -0.387 inactive; #3 0.512 inactive

3 successive entries from above:
G2 robust z-score, by gene and reagent
MAN2B1: #2 -1.44 inactive; #3 0.221 inactive
MED4: #1 -0.705 inactive

Next entries follow:
G2 robust z-score, by gene and reagent
FNDC5: #1 5.3 active; #2 3.37 inactive; #3 0.358 inactive
THADA: #1 2.18 inactive; #2 -0.0756 inactive; #3 1.72 inactive
ZNF286B: #1 0.688 inactive; #2 1.2 inactive; #3 -0.562 inactive
ANKIB1: #1 -0.561 inactive; #2 -0.0861 inactive; #3 -0.541 inactive
UMOD: #1 0.177 inactive; #2 3.44 inactive; #3 0.281 inactive
MCTP2: #1 0.332 inactive; #2 2.41 inactive; #3 -0.849 inactive
